The list shows a part of the results.
Columns and labels:
Assay in all cases: log2 fold change, soluble protein after heating vs DMSO (PISA); higher = thermal stabilisation; K562 lysate, 10 uM; active = over 0.2 and 3.5 SD of the protein, either way, in both replicates (recomputed)
[1] = compound: CC1=C2C(=CC=C1)N=C(N(C2=O)C3=CC=CC=C3C)CN4C=NC5=C(N=CN=C54)N
Summary of the method: (§1)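 K562 pellets were dounce-homogenised in PBS pH 7.4 containing 1 mM MgCl2, and the crude extract, at 1 mg/mL protein, was exposed to 10 μM compound for 30 min. Aliquots were heated for 3 min across 48°C-58°C, pooled, brought to 0.5% NP-40 at 4°C and spun at 21,000xg for 90 min, with the supernatant taken as soluble protein. TMTpro 16plex LC-MS/MS with equalised channel sums quantified that protein. Values are log-two fold changes in thermal stability relative to solvent controls, taken from duplicates.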

Protein sequences, listed by entry. Tags and fused reporters are not part of them. Lines headed by an entry give the natural chain unless they say otherwise; changes in a name come on top.
UniProt Q8NE18: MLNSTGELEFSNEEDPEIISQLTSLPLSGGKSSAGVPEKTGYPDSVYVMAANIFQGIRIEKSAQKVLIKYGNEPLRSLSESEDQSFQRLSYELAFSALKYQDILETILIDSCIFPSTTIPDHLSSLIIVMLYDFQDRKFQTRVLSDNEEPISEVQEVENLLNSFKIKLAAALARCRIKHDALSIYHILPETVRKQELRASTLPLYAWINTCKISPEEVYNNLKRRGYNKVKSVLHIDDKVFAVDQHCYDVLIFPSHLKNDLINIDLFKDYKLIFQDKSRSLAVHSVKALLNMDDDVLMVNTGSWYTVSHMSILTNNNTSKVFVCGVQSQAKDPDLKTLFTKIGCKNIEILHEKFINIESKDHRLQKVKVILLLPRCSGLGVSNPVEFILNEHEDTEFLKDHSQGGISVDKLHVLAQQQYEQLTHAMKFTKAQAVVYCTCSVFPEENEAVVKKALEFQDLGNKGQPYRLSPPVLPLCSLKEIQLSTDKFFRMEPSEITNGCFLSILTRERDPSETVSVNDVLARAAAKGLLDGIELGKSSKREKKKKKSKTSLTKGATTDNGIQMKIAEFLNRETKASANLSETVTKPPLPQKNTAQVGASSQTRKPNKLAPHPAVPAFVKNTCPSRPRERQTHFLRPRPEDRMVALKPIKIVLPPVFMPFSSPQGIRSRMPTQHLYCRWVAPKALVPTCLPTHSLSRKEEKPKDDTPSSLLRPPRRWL
UniProt P48645: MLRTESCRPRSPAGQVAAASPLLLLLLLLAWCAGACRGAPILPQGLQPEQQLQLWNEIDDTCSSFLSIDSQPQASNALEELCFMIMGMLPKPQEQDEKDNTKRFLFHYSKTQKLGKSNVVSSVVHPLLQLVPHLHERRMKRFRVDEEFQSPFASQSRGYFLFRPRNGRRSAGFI
UniProt Q92686, whole entry, looked up: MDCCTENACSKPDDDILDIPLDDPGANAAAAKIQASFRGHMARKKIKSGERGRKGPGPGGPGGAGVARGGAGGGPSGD
UniProt P48552: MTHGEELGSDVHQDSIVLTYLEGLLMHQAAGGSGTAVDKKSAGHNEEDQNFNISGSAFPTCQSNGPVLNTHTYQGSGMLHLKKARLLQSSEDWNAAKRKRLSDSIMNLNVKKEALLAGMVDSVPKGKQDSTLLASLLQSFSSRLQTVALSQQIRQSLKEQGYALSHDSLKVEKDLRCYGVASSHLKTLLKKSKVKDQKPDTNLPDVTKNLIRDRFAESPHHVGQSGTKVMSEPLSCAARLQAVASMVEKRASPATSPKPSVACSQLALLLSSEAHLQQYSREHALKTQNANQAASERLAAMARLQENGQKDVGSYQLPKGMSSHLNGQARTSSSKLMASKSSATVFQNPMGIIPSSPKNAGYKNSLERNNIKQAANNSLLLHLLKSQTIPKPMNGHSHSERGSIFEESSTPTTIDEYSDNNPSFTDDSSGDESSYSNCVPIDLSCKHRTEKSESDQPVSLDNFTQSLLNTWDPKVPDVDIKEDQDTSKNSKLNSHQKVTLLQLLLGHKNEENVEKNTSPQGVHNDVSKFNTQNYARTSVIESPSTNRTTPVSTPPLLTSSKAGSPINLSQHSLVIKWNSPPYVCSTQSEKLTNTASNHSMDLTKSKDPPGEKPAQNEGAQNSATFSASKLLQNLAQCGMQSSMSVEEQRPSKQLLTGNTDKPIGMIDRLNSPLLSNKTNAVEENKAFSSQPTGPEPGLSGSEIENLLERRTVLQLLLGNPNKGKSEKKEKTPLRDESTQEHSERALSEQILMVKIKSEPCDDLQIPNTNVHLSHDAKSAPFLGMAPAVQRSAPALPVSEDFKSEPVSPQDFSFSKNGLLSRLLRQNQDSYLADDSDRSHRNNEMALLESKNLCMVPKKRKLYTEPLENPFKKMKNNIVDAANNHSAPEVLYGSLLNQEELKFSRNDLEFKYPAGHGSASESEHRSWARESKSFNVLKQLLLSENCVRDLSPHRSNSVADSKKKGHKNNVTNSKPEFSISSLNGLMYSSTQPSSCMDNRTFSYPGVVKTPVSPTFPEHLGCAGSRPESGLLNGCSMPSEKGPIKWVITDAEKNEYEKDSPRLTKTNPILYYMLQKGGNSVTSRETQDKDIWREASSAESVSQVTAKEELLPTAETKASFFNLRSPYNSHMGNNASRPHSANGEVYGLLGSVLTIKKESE
UniProt Q6ZVK8: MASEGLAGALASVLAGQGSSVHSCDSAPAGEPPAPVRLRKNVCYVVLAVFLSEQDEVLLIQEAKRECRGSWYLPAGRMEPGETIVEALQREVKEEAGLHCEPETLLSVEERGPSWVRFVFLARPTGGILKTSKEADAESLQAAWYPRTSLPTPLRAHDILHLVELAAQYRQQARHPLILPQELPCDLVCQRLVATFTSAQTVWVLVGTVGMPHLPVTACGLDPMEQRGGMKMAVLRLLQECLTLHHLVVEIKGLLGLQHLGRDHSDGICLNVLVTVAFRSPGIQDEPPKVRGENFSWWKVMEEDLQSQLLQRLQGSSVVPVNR
UniProt O75052: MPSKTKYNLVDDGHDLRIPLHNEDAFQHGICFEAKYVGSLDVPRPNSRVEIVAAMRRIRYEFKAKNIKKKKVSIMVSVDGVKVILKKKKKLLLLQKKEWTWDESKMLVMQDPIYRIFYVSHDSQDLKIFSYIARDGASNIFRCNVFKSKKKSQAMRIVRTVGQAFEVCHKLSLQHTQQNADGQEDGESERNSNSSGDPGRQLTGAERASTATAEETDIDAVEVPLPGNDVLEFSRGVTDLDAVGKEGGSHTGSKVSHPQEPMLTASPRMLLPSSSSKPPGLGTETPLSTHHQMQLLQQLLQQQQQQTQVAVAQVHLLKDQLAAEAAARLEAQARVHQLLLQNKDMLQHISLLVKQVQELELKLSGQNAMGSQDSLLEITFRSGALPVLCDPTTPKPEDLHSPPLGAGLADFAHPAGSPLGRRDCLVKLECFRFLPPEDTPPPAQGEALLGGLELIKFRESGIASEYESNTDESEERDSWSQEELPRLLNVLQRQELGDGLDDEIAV
UniProt O96028: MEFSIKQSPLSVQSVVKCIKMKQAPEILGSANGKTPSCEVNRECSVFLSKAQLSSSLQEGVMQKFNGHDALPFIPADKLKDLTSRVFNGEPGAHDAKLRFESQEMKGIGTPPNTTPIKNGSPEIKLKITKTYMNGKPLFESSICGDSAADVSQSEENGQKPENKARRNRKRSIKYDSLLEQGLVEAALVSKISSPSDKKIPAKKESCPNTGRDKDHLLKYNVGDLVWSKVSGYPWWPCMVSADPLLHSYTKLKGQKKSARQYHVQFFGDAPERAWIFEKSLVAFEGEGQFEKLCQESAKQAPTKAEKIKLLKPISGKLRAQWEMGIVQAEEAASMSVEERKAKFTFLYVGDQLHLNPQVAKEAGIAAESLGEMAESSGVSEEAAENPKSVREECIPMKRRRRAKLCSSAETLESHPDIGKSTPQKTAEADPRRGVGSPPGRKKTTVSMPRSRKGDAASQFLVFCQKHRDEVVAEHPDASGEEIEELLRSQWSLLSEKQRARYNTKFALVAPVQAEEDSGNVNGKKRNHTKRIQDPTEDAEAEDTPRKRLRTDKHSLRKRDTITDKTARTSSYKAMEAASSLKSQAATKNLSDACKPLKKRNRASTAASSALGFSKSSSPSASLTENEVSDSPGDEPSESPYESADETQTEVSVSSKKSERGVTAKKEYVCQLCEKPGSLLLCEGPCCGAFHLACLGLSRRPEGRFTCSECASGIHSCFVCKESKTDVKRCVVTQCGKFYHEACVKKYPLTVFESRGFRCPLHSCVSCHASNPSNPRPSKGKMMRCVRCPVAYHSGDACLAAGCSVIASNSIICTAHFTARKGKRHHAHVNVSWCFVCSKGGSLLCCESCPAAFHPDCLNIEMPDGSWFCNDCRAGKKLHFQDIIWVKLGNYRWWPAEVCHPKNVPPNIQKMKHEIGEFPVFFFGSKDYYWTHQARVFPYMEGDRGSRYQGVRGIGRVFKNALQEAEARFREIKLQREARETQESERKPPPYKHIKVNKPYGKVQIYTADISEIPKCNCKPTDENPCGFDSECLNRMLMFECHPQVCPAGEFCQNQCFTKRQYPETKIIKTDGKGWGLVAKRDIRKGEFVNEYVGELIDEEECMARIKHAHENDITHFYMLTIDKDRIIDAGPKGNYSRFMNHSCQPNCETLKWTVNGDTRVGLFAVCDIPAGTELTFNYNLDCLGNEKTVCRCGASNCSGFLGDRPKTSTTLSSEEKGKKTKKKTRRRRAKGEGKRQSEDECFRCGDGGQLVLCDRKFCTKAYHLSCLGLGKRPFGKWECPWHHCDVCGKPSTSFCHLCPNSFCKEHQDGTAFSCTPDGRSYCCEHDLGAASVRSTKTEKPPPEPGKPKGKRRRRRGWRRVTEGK
UniProt P13056: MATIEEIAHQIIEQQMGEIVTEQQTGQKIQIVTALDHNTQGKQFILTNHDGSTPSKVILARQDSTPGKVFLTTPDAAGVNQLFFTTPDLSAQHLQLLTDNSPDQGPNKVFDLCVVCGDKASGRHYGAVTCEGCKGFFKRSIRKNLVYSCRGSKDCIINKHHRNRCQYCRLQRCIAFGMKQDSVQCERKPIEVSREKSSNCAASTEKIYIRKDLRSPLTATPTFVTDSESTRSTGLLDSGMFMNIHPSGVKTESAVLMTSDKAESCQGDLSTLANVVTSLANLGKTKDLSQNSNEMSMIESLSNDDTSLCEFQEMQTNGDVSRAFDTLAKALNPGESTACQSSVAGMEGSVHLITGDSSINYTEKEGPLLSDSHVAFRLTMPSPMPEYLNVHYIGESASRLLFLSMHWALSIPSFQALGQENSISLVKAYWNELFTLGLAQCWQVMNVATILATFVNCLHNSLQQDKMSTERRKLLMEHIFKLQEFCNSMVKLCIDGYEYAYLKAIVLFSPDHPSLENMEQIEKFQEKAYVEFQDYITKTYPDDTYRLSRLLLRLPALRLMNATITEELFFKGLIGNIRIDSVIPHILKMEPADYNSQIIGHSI
UniProt P24468: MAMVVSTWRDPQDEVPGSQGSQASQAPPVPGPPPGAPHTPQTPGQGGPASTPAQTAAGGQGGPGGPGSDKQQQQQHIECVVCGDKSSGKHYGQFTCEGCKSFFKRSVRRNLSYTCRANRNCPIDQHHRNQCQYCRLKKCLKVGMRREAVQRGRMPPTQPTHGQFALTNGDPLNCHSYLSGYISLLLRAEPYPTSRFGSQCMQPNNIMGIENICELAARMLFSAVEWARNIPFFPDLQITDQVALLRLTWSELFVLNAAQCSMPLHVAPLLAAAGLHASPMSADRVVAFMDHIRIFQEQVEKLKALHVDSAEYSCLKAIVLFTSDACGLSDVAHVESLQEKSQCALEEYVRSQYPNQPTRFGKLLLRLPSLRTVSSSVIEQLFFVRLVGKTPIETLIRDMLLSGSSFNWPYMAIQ
UniProt P49757: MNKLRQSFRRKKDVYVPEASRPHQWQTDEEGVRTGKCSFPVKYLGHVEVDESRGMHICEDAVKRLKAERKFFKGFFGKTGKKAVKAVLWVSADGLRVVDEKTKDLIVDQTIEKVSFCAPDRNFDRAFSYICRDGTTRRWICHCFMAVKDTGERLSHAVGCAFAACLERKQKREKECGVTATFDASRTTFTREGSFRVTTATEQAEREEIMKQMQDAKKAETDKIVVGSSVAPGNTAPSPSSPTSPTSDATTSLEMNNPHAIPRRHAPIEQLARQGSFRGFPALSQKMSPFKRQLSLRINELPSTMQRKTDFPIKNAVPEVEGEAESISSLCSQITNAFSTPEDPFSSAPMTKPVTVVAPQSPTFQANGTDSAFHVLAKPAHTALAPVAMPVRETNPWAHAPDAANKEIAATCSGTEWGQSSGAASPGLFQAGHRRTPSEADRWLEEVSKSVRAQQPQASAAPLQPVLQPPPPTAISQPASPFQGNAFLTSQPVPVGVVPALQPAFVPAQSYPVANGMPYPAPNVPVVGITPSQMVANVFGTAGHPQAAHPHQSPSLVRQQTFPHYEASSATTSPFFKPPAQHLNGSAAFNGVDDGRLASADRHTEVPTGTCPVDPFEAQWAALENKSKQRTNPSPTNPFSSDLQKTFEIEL
UniProt Q96MY1: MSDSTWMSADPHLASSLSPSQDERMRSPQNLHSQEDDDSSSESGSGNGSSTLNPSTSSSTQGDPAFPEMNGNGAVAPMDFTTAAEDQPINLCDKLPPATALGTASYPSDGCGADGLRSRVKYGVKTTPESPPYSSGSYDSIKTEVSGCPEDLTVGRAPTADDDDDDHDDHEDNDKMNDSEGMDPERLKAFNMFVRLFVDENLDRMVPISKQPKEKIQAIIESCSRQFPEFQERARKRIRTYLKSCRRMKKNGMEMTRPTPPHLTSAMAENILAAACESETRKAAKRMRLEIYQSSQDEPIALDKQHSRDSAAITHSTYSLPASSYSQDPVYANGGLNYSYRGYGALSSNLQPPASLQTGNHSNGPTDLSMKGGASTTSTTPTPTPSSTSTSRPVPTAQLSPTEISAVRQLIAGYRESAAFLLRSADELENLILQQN
UniProt P61916: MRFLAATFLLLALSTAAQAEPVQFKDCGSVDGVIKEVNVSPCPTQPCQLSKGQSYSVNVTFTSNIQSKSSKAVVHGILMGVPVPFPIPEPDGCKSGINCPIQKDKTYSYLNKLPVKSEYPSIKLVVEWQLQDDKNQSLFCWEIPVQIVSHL

[2] = compound: Cc1sc2c(c1C)C(c1ccc(Cl)cc1)=N[C@@H](CC(=O)OC(C)(C)C)c1nnc(C)n1-2
Summary of the method: as §1

[3] = compound: C1=CC=C(C=C1)[C@H](COC2=CC3=C(C=C2)NC(=O)N3)NC(=O)C4=CC=CN(C4=O)CC5=CC(=C(C=C5)F)F
Summary of the method: as §1

[4] = compound: CC1=C(SC2=C1C(=N[C@H](C3=NN=C(N32)C)CC(=O)N)C4=CC=C(C=C4)Cl)C
Summary of the method: as §1

[5] = compound: c1ccc([C@@H]2C[C@H]2NC2CCNCC2)cc1
Summary of the method: as §1

| Target | log2 fold change [1] | log2 fold change [2] | log2 fold change [3] | log2 fold change [4] | log2 fold change [5] |
| --- | --- | --- | --- | --- | --- |
| NUDT6 (UniProt P53370) | inactive: -0.222 | inactive: 0.009 | – | – | – |
| NSUN7 (UniProt Q8NE18) | inactive: 0.06 | – | inactive: -0.144 | inactive: -0.046 | inactive: -0.081 |
| NT5C2 (UniProt Q5JUV3) | – | inactive: -0.177 | – | – | – |
| NRDE2 (UniProt Q9H7Z3) | – | inactive: 0.232 | inactive: -0.167 | inactive: -0.161 | – |
| NRSN2 (UniProt Q9GZP1) | – | inactive: -0.207 | – | – | – |
| NPLOC4 (UniProt I3L3I1) | – | inactive: -0.101 | inactive: -0.041 | inactive: 0.2 | – |
| NSD1 (UniProt Q96L73) | inactive: -0.081 | inactive: -0.159 | – | – | inactive: -0.005 |
| NUP153 (UniProt P49790) | inactive: 0.01 | inactive: 0.009 | inactive: 0.022 | inactive: -0.019 | inactive: -0.004 |
| NOCT (UniProt Q9UK39) | – | inactive: 0.021 | – | – | – |
| NMU (UniProt P48645) | inactive: 0.15 | – | – | – | inactive: 0.06 |
| NRGN (UniProt Q92686) | – | inactive: 0.159 | inactive: 0.024 | inactive: 0.042 | – |
| NRIP1 (UniProt P48552) | – | inactive: -0.071 | inactive: 0.058 | inactive: 0.112 | inactive: -0.069 |
| NUDT18 (UniProt Q6ZVK8) | inactive: -0.041 | – | – | – | inactive: -0.075 |
| NOS1AP (UniProt O75052) | inactive: 0.082 | – | inactive: -0.404 | inactive: 0.154 | inactive: -0.075 |
| NUDT8 (UniProt Q8WV74) | inactive: 0.026 | inactive: 0.003 | – | – | inactive: -0.089 |
| NOMO3 (UniProt P69849) | – | inactive: -0.011 | – | – | – |
| NUDT14 (UniProt O95848) | – | inactive: -0.112 | inactive: 0.06 | inactive: 0.007 | inactive: -0.079 |

| Target | log2 fold change [1] | log2 fold change [2] | log2 fold change [3] | log2 fold change [4] | log2 fold change [5] |
| --- | --- | --- | --- | --- | --- |
| NUBPL (UniProt Q8TB37) | inactive: -0.098 | inactive: 0.075 | – | – | – |
| NOL8 (UniProt Q76FK4) | inactive: -0.093 | inactive: 0 | – | – | inactive: -0.025 |
| NSD2 (UniProt O96028) | inactive: -0.352 | – | inactive: -0.14 | inactive: -0.08 | inactive: 0.107 |
| NR2F6 (UniProt P10588) | – | inactive: 0.017 | – | – | – |
| NR2C1 (UniProt P13056) | inactive: -0.006 | – | inactive: 0.003 | inactive: -0.092 | inactive: 0.205 |
| NR2F2 (UniProt P24468) | – | inactive: -0.008 | inactive: -0.082 | inactive: -0.117 | inactive: 0.082 |
| NOP58 (UniProt Q9Y2X3) | inactive: -0.014 | inactive: 0.067 | inactive: 0.002 | inactive: 0.005 | inactive: 0.023 |
| NUMB isoform 2 (UniProt P49757) | – | inactive: -0.207 | – | – | – |
| NOS3 (UniProt P29474) | inactive: -0.036 | – | – | – | – |
| NSD3 (UniProt Q9BZ95) | – | inactive: 0.151 | inactive: 0.216 | inactive: 0.037 | inactive: 0.028 |
| NOL4L (UniProt Q96MY1) | – | inactive: 0.033 | – | – | inactive: 0.034 |
| NOL3 isoform 3 (UniProt O60936) | inactive: -0.099 | inactive: 0.268 | – | – | – |
| NUDT22 (UniProt Q9BRQ3) | inactive: 0.117 | – | – | – | – |
| NPC2 (UniProt P61916) | inactive: -0.013 | inactive: -0.011 | inactive: 0.052 | inactive: -0.055 | inactive: -0.032 |
| NRIP3 (UniProt Q9NQ35) | inactive: 0.101 | – | – | – | inactive: 0.054 |
| NOM1 (UniProt Q5C9Z4) | inactive: 0.155 | inactive: -0.088 | – | – | inactive: -0.003 |

Whole records from above.
NPLOC4 (UniProt I3L3I1) as listed: log2 fold change [2]: inactive: -0.101; log2 fold change [3]: inactive: -0.041; log2 fold change [4]: inactive: 0.2
NSUN7 (UniProt Q8NE18) as listed: log2 fold change [1]: inactive: 0.06; log2 fold change [3]: inactive: -0.144; log2 fold change [4]: inactive: -0.046; log2 fold change [5]: inactive: -0.081

From the supplement of paper PMC10849652
